These are yes or no findings as the source states them, for the method shown. In cells and extracts the contact can be indirect. Some entries that bind do so weakly or less than the wild type.
Molecular target: T1, Ethylmalonic encephalopathy protein 1 (mouse (endogenous in liver tissue)) (UniProt Q9DCM0)
T1 sequence: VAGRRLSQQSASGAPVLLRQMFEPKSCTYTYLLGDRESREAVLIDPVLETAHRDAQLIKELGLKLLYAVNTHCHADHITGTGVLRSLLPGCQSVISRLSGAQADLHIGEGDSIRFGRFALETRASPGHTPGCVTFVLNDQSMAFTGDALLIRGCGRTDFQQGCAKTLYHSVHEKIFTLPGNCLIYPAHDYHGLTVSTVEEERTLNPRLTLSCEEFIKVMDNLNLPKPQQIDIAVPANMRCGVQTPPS
Test: co-IP; anti-ETHE1 antibody (B-12, 10 µg) on Pierce protein A/G agarose spin column; pre-treated protein lysates incubated overnight at 4 °C; western blot for Ethe1, ETFDH and Keap1; control, DHEA and DHEA+Met groups

- binding: binds
B1: Electron transfer flavoprotein dehydrogenase (protein, UniProt Q921G7 33-616)
chain: SSTSAVPQITTHYTVHPREKDKRWEGVNMERFAEEADVVIVGAGPAGLSAAIRLKQLAAEQGKDIRVCLVEKAAQIGAHTLSGACLDPAAFKELFPDWKEKGAPLNTPVTEDRFAILTEKHRIPVPILPGLPMNNHGNYIVRLGHLVSWMGEQAEALGVEVYPGYAAAEVLYHEDGSVKGIATNDVGIQKDGAPKTTFERGLELHAKVTVFAEGCHGHLAKQLYKKFDLRASCDAQTYGIGLKELWIIDEKKWKPGRVDHTVGWPLDRHTYGGSFLYHLNEGEPLVAVGFVVGLDYQNPYLSPFREFQRWKHHPSIQPTLEGGKRIAYGARALNEGGLQSIPKLTFPGGLLIGCSPGFMNVPKIKGTHTAMKSGSLAAESIFKQLTSENLQSKTTGLHVTEYEDNLKQSWVWKELHAVRNIRPSCHGILGVYGGMIYTGIFYWILRGMEPWTLKHKGSDSDQLKPAKDCTPIEYPKPDGQISFDLLSSVALSGTNHEHDQPAHLTLKDDSIPVNRNLSIYDGPEQRFCPAGVYEFVPLEQGDGFRLQINAQNCVHCKTCDIKDPSQNINWVVPEGGGGPAYNGM
